Values from PubChem BioAssay AID1259405 (NCATS, 2018).
Purpose: 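Mouse-designed siRNAs used to find CHO productivity engineering targets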 (primary screen). Cells: Chinese hamster CHO-K1 ovary cells with stable secreted eGFP expression. Reagent: single siRNA against mouse genes, 0.8 pmol siRNA per well (2 µl of 400 nM stock). Time to read-out: 3 days. Measured: 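Percent of the per-plate non-targeting control median for intracellular GFP per well by laser scanning cytometry and for cell viability by ATP luminescence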. Direction: GFP, % of control: higher = more GFP per well, higher productivity; viability (ATP), % of control: higher = more viable cells (more ATP). Hit rule: 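Called active when intracellular GFP, relative to negative control, is at or above 120%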.
The whole screen tested about 50,000 reagents; below is a part drawn at random. Over the whole deposit, about 4,000 (8%) got an active call. 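Mouse siRNA library applied to hamster cells; one well for each siRNA.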 Unmarked entries are inactive. The numbers tell different reagents against one gene apart. No sequences are given here.

no.	target gene	reagent no.	GFP, % of control	viability (ATP), % of control
1	Rassf1 (Ras association (RalGDS/AF-6) domain family member 1)	1	148 (active)	87.9
2	Rassf1 (Ras association (RalGDS/AF-6) domain family member 1)	2	62.7	78.5
3	Rassf1 (Ras association (RalGDS/AF-6) domain family member 1)	3	52.5	62.6
4	Or4c113 (olfactory receptor family 4 subfamily C member 113)	1	68.3	80.3
5	Or4c113 (olfactory receptor family 4 subfamily C member 113)	2	58.9	49.6
6	Or4c113 (olfactory receptor family 4 subfamily C member 113)	3	59.5	93.7
7	Il10 (interleukin 10)	1	67.1	55.2
8	Il10 (interleukin 10)	2	25.6	24.8
9	Il10 (interleukin 10)	3	76.1	82.1
10	Mpv17 (MpV17 mitochondrial inner membrane protein)	1	30.4	12.1
11	Mpv17 (MpV17 mitochondrial inner membrane protein)	2	80.5	85.1
12	Mpv17 (MpV17 mitochondrial inner membrane protein)	3	47.1	43.6
13	Nxnl2 (nucleoredoxin-like 2)	1	97	69.3
14	Nxnl2 (nucleoredoxin-like 2)	2	59.9	59.9
15	Nxnl2 (nucleoredoxin-like 2)	3	68.3	99.2
16	Mnmip1 (manchette microtubule inner protein 1)	1	71.1	77.4
17	Mnmip1 (manchette microtubule inner protein 1)	2	109	101
18	Mnmip1 (manchette microtubule inner protein 1)	3	51.4	69.9
19	Anxa5 (annexin A5)	1	85.8	130
20	Anxa5 (annexin A5)	2	90	75.2
21	Anxa5 (annexin A5)	3	79.6	70.5
22	Moxd1 (monooxygenase, DBH-like 1)	1	109	74.4
23	Moxd1 (monooxygenase, DBH-like 1)	2	104	100
24	Moxd1 (monooxygenase, DBH-like 1)	3	43.5	41.6
25	Urm1 (ubiquitin related modifier 1)	1	86.9	69
26	Urm1 (ubiquitin related modifier 1)	2	35.9	20.7
27	Urm1 (ubiquitin related modifier 1)	3	82.8	32.8
28	Fam163a (family with sequence similarity 163, member A)	1	80.3	73.5
29	Fam163a (family with sequence similarity 163, member A)	2	68.4	66.7
30	Fam163a (family with sequence similarity 163, member A)	3	48.8	64.6
31	Cnn1 (calponin 1)	1	138 (active)	117
32	Cnn1 (calponin 1)	2	88.9	69.4
33	Cnn1 (calponin 1)	3	84.7	75.3
34	Sdr9c7 (4short chain dehydrogenase/reductase family 9C, member 7)	1	103	111
35	Sdr9c7 (4short chain dehydrogenase/reductase family 9C, member 7)	2	86	71
36	Sdr9c7 (4short chain dehydrogenase/reductase family 9C, member 7)	3	80	81.6

Hits, among the entries above:
target gene	reagent no.	GFP, % of control	viability (ATP), % of control
Rassf1 (Ras association (RalGDS/AF-6) domain family member 1)	1	148 (active)	87.9
Cnn1 (calponin 1)	1	138 (active)	117
